Results are given in words; binding and its absence hold for the method and conditions named.
Columns and labels:
Assay in all cases: condition: only in the absence of nucleotide (2 μM ChlI, 2 μM ChlD); pull-down; co-purification on Ni(II) chelating Sepharose through His6-ChlD; 2 μM ChlD and 2 μM ChlI, without nucleotide, 15 mM MgCl2, 50 mM Tricine, 0.3 M glycerol, pH 7.9, room temperature; SDS-PAGE of the resin; both purified
[1] = target: His6-ChlD (E152Q), Walker B mutant (Synechocystis sp. PCC 6803) (UniProt P72772)
[2] = target: His6-ChlD (R289A), Sensor II mutant (Synechocystis sp. PCC 6803) (UniProt P72772)
[3] = target: His6-ChlD (K49A), Walker A mutant (Synechocystis sp. PCC 6803) (UniProt P72772)
[4] = target: His6-ChlD, wild type, of the magnesium chelatase of Synechocystis sp. PCC 6803 (Synechocystis sp. PCC 6803) (UniProt P72772)
[5] = target: His6-ChlD (R208A), arginine finger mutant (Synechocystis sp. PCC 6803) (UniProt P72772)

Sequences of proteins named here, by UniProt entry; tags and fusion partners are left off. A change or cut given only in a name is not applied to a line headed by its entry.
UniProt P72772: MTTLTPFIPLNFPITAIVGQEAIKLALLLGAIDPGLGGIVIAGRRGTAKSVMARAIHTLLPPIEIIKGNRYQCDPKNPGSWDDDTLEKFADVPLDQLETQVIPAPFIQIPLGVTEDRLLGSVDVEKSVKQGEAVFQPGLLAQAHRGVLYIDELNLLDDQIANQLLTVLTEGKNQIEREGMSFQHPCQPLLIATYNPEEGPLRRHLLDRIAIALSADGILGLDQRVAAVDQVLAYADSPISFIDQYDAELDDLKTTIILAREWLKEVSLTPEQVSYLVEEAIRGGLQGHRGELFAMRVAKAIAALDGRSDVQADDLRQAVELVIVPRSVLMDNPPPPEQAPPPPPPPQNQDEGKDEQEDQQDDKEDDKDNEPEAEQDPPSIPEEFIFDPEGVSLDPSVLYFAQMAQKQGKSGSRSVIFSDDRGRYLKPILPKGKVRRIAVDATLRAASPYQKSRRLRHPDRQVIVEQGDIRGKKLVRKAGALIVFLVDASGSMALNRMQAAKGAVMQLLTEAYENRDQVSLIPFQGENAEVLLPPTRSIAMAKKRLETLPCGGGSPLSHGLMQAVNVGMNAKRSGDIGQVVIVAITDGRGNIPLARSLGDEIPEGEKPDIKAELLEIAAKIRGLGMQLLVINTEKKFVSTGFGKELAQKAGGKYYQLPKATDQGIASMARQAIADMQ

Measured: binding

B1: ChlI protein of the magnesium chelatase of Synechocystis sp. PCC 6803 (protein, UniProt P51634 1-357)
chain: MTATLAAPSKTRRVVFPFTAIVGQDEMKLALLLNVIDPKIGGVMIMGDRGTGKSTTIRALADLLPEIEVVANDPFNSSPSDPEMMSEEVRIRVDSQEPLSIVKKKVTMVDLPLGATEDRVCGTIDIEKALSEGVKAFEPGLLAKANRGILYVDEVNLLDDHLVDVLLDSAAGGWNTVEREGISIRHPARFVLVGSGNPEEGELRPQLLDRFGMHAEIRTVREPELRVKIVEQRTEFDQNPHPFCDQYQTEQEALQAKIVNAQNLLPQVTIDYDYRVKVSEVCAELDVDGLRGDIVTNRAAKALAAFEGRTEVTVDDISRVIVLCLRHRLRKDPLESIDSGSKVEKVFKRVFGVVDEA
no binding: all assays above

Reference: paper PMC3789969, “The Allosteric Role of the AAA^+ Domain of ChlD Protein from the Magnesium Chelatase of Synechocystis Species PCC 6803” (The Journal of Biological Chemistry, 2013)
